Values quoted from earlier work in US20200206351A1, “LOCAL ANESTHETIC SOLUTION FOR DENTAL AND/OR CONTRAST MEDIA USE” (priority 2014, published 2020).

Conditions: in solution

For `OC[C@@H](O)[C@@H](O)[C@H](O)[C@@H](O)CO` [Sorbitol], the sweetness perception raking is given as 0.6 times the sweetness of sucrose.

For `O=C(CO)[C@@H](O)[C@H](O)[C@H](O)CO` [fructose], the sweetness perception raking is given as 1.7 times the sweetness of sucrose.
